Laboratory results: patent US20220125891A1
Substitutions are numbered along the chain they refer to. Results are given in words; binding and its absence hold for the method and conditions named. Some entries that bind do so weakly or less than the wild type.

B1: REB0007 (antibody, V domains shown)
VH: QEQLEESGGDLVKPEGSLTLTCTASGFSFNSRYWICWVRQAPGKGLEWIGCIVSGDSNTYYASWAKGRFTISKTSSTTVTLQMTSLTAADTATYFCARWYTSSRPGLWGPGTLVTVSS
VL: DVVMTQTPASVSEPVGGTVTIKCQASQSISSYLSWYQQKPGQPPKLLIYSATNLASGVSSRFKGSRFGTEFTLTISDLECDDAATYYCQCSYYVSGFAFGGGTEVVVKG
B2: REB0014 (antibody, V domains shown)
VH: QSLEESGGGLVKPGGTLTLTCKASGIDFSSYYYMCWVRQAPGKGLEWIACIYSGDGSSYYVSWANGRFTISKTSSATVTLQMTSLTAADTATYFCARDLGNLWGPGTLVTVSS
VL: QVLTQTPASVSAAVGGTVTINCQASQSVYKNSGLSWFQQKPGQSPKRLIYSASTLDSGVPSRFKGSGSGTQFTLTISDVQCDDAATYYCLGIYVCSSVDCGAFGGGTEVVVKG
B3: REB0022 (antibody, V domains shown)
VH: QEQLEESGGDLVKPEGSLTLTCTASGGSFSSRYWMCWVRQAPGKGLEWIACIVIGDRNNYYASWAKGRFTISKTSSTTVTLQMTSLTAADTATYFCARWHSSTAPSLWGPGTLVTVSS
VL: B1 VL with K22N, S50K, T52S, N53T, R66G, F67S, D81A, A98V

Target: T1, Peptide 2 (…-NH2), biotin-conjugated (human)
T1 sequence (peptide, C-terminal amide; biotin-conjugated): AFPPREYWSEPYPLPPPTC
Assay: flow cytometry of antigen-coated streptavidin beads

Row | Binder | binding
1 | B1 | binds
2 | B2 | binds
3 | B3 | binds
